Source: the supplement of paper PMC10849652
The list shows a part of the results.

The chains behind the UniProt entries cited, without tags or fusion partners. Where a name states a change or a piece, a line headed by the entry shows the natural chain unless it says otherwise.
UniProt O96007: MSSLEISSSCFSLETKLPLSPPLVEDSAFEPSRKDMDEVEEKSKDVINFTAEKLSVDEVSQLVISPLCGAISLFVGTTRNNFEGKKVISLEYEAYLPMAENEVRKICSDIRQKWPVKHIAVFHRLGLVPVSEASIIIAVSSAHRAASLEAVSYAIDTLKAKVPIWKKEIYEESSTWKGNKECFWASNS
UniProt Q8NHP6: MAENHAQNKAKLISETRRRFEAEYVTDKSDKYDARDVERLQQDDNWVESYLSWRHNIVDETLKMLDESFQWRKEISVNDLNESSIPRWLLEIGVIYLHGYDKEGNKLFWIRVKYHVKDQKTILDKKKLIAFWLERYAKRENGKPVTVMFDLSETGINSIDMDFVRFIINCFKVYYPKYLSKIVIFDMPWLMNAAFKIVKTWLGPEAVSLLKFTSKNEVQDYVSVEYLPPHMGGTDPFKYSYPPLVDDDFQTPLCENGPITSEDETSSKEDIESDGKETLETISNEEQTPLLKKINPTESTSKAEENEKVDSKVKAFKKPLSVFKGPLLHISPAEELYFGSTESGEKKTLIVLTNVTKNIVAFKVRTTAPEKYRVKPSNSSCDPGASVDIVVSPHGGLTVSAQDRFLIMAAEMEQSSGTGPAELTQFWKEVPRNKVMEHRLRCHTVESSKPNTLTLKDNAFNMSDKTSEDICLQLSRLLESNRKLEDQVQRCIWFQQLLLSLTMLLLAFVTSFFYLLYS
UniProt P22033: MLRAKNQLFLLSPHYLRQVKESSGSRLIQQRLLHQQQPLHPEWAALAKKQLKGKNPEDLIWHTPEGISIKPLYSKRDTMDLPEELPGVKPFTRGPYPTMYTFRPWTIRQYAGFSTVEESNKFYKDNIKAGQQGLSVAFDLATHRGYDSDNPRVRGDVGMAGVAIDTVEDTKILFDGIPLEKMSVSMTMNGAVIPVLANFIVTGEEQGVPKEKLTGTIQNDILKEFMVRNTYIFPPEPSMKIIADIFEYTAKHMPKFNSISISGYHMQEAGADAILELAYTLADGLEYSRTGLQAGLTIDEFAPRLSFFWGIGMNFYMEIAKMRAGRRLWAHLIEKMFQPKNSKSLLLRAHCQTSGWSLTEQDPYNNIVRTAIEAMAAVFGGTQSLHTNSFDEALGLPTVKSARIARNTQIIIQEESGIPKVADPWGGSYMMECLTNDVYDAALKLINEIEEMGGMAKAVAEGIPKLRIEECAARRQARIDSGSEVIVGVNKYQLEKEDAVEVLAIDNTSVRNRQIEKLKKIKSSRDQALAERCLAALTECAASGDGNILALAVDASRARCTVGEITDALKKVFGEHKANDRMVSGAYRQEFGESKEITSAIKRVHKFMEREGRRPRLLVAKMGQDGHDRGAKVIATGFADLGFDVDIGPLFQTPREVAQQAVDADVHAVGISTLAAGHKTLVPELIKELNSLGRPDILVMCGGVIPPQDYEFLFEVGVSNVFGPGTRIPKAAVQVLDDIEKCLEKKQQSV
UniProt O95297: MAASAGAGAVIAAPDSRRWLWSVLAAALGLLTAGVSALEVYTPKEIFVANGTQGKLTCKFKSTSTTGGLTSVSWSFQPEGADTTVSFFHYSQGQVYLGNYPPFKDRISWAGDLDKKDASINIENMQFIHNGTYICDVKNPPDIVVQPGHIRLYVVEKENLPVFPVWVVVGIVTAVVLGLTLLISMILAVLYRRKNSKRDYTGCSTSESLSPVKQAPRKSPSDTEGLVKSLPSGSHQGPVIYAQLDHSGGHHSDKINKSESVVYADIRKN
UniProt Q9BWT6: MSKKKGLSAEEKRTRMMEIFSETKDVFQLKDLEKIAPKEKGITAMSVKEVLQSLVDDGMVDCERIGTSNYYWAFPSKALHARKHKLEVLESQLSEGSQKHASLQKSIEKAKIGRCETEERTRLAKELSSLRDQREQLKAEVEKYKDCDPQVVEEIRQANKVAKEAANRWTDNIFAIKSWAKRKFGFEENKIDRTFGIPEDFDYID
UniProt Q99797: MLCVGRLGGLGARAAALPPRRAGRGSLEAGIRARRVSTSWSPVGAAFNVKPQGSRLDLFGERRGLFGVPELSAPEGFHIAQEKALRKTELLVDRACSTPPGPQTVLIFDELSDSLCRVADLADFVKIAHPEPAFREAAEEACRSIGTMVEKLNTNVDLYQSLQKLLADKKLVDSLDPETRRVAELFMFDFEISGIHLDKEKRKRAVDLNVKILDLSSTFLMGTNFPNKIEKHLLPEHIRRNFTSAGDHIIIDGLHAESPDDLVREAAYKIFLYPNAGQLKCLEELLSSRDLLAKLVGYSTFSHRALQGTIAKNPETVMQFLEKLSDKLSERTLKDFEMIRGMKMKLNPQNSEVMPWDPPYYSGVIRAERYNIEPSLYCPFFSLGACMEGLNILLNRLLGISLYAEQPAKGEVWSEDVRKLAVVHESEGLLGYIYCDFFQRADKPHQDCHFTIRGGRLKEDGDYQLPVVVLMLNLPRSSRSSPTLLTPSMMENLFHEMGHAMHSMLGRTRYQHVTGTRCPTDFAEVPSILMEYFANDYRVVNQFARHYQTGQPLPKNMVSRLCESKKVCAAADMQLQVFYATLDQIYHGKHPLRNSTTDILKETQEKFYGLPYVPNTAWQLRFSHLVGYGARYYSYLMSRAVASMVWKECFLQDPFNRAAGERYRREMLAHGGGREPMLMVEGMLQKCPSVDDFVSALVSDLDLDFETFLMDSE
UniProt Q567V2: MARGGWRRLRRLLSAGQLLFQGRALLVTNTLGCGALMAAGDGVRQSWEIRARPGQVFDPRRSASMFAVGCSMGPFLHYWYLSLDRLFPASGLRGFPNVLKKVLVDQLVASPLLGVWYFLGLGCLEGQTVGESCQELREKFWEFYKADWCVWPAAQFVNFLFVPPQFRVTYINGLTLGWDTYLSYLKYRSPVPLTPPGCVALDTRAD
UniProt Q96EY8: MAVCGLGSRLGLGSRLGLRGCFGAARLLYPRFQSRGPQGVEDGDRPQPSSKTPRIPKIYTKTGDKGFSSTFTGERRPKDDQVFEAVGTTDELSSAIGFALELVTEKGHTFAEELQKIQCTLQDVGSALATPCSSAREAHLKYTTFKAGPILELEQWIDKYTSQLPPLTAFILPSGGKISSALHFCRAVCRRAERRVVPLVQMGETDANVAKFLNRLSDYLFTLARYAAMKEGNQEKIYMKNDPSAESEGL
UniProt Q03111: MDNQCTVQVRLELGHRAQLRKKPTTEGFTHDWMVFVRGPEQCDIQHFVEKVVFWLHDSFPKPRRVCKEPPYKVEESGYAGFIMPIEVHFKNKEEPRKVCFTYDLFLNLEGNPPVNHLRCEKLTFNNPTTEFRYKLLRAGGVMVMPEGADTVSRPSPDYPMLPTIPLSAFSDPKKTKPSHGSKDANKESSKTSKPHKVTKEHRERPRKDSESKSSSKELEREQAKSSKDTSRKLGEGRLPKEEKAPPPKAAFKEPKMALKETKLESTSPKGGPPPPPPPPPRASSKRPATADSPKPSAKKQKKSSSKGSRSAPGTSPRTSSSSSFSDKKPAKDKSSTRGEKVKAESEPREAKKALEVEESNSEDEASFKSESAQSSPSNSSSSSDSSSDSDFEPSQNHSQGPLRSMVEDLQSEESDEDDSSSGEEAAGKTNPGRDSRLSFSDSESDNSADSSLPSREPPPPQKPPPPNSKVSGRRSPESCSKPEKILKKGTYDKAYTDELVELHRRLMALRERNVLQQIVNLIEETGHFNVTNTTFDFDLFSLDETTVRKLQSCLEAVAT
UniProt Q9NZW5: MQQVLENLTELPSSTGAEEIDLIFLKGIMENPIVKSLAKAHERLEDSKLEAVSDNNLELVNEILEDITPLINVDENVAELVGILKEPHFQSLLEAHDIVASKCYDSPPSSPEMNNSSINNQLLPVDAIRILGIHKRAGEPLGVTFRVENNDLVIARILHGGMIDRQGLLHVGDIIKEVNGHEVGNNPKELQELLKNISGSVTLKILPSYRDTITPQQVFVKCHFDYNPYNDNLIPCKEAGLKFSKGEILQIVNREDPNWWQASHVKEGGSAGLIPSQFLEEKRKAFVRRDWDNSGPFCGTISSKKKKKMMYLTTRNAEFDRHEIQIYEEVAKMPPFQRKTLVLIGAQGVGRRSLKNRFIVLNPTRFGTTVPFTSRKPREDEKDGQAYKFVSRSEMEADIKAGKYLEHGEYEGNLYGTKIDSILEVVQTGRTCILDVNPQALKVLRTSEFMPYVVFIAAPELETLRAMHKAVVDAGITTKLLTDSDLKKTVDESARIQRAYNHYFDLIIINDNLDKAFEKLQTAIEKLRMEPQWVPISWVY
UniProt Q9UBU8, whole entry, looked up: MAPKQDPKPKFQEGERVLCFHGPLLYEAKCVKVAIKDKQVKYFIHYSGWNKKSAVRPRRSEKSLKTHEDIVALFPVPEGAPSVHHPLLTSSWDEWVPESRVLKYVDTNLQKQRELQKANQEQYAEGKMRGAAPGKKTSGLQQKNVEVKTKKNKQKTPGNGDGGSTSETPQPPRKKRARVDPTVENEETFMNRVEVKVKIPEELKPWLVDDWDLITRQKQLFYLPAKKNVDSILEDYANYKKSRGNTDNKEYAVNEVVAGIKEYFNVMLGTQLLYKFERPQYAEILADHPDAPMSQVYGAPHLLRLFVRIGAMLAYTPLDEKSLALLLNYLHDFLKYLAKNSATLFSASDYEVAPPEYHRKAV
UniProt Q8N4V1: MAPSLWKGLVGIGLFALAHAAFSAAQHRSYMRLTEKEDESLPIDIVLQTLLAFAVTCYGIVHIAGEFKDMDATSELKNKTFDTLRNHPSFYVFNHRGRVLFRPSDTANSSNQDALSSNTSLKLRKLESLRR
UniProt Q9UNW1: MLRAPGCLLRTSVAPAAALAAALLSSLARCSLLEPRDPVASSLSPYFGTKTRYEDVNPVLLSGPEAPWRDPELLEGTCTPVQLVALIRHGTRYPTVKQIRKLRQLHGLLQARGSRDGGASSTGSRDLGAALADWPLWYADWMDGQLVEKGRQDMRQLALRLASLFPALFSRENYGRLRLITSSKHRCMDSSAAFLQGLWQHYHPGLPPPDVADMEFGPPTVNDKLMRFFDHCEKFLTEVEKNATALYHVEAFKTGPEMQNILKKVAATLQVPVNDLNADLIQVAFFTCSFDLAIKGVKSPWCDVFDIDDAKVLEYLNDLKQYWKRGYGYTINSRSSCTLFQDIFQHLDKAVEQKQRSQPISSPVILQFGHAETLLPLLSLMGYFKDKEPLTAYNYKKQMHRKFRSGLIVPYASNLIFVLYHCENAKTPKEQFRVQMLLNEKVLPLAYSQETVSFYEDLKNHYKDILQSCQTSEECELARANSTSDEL
UniProt Q9Y6X9: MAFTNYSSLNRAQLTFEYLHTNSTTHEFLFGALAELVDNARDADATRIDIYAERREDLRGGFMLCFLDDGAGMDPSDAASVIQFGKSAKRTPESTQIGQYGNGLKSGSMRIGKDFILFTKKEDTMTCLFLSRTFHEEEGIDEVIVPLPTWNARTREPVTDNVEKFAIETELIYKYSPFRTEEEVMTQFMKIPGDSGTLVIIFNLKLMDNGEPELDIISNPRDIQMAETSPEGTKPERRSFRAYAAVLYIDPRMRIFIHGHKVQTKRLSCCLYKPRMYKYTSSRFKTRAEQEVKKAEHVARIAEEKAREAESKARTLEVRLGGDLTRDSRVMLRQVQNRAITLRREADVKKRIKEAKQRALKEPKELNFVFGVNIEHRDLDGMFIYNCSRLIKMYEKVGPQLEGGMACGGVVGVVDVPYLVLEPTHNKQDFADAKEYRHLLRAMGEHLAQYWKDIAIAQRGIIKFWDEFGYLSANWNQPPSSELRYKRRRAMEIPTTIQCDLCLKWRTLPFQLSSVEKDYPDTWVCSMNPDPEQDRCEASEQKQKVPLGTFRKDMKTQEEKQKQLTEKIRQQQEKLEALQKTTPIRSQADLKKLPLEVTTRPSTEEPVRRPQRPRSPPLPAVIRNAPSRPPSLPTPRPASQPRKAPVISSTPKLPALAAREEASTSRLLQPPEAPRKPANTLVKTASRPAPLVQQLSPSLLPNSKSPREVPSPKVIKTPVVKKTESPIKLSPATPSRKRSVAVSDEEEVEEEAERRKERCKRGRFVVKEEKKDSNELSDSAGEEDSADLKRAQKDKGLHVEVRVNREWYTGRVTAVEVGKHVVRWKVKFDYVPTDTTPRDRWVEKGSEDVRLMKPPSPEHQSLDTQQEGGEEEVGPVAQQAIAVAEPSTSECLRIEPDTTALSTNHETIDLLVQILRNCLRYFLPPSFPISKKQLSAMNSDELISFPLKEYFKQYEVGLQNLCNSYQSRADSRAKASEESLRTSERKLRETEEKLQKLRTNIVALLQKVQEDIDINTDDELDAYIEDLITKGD

Legend:
Test in all cases: log2 fold change, soluble protein after heating vs DMSO (PISA); higher = thermal stabilisation; K562 cells, 10 uM, 30 min; active = over 0.2 and 3.5 SD of the protein, either way, in both replicates (recomputed)
erlotinib = compound: C#Cc1cccc(Nc2ncnc3cc(OCCOC)c(OCCOC)cc23)c1 [erlotinib]
Summary of the method: (§1)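 K562 cells (2×10^6 cells/mL) were treated with 10 μM compound for 30 min, and aliquots were heated for 3 min over 48°C-58°C. Pooled aliquots were extracted in PBS with 0.5% NP-40 at 4°C, and the supernatant after 21,000xg for 90 min was measured by TMTpro 16plex LC-MS/MS with channel sums equalised. Reported thermal stability, relative to control samples and from duplicates, is a log2 fold change.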

[1] = compound: C/C(=N\NC(=O)C1=CC(=CC=C1)S(=O)(=O)N2CCOCC2)/C3=C(C=CC(=C3)Cl)O
Summary of the method: as §1

[2] = compound: C1=CC(=C(C=C1Cl)C2=NC3=NC=CN=C3C(=N2)NC4=CC=NC=C4)F
Summary of the method: as §1

[3] = compound: C1=CC(=CC=C1C2=NC3=C(N2)C=C(C=C3)C(=O)N)OC4=CC=C(C=C4)Cl
Summary of the method: as §1

[4] = compound: C1=CC2=C(C=CC(=C2)/C=C\3/C(=O)NC(=NCC4=CC=CS4)S3)N=C1
Summary of the method: as §1

[5] = compound: C1=CC2=NC=CN=C2C=C1/C=C/3\C(=O)NC(=O)S3
Summary of the method: as §1

[6] = compound: C1=CC=C(C=C1)C2=NC(=C(N2)C3=CC=NC=C3)C4=CC(=C(C=C4)Cl)O
Summary of the method: as §1

[7] = compound: C1=CC=C2C(=C1)C3=NNC4=CC=CC(=C43)C2=O
Summary of the method: as §1

[8] = compound: C1CCN(C1)C(=O)NC2=CC=CC(=C2)NC3=NC=C(C(=N3)NCCC4=CN=CN4)Br
Summary of the method: as §1

[9] = compound: C1CN(CCC1(CC2=CC=C(C=C2)Cl)N)C3=NC=NC4=C3C=CN4
Summary of the method: as §1

Measured: log2 fold change

MOCS2 (UniProt O96007)
inactive: erlotinib -0.006 | [1] -0.05 | [2] 0.01 | [3] -0.006 | [4] 0.002 | [5] 0.006 | [6] -0.027 | [7] 0.034 | [8] -0.013 | [9] 0.058

MOSPD2 (UniProt Q8NHP6)
inactive: erlotinib 0.02 | [1] 0.085 | [2] -0.015 | [3] 0.006 | [4] -0.036 | [5] 0.042 | [6] 0.07 | [7] -0.006 | [8] -0.011 | [9] 0.013

MRPL46 (UniProt Q9H2W6)
inactive: erlotinib -0.025 | [1] -0.008 | [2] 0 | [3] 0.011 | [4] -0.054 | [5] -0.001 | [6] 0.046 | [7] 0.164 | [8] -0.031 | [9] -0.075

MMUT (UniProt P22033)
inactive: erlotinib 0.011 | [1] 0.035 | [2] 0.037 | [3] 0.018 | [4] 0.018 | [5] 0.008 | [6] -0.012 | [7] 0.003 | [8] -0.065 | [9] 0.04

MRPL33 (UniProt O75394)
inactive: erlotinib -0.117 | [1] 0.033 | [2] -0.278 | [3] 0.104 | [4] -0.135 | [5] -0.064 | [6] 0.025 | [7] 0.078 | [8] -0.099 | [9] -0.236

MRPL30 isoform 2 (UniProt Q8TCC3)
inactive: erlotinib -0.083 | [1] -0.15 | [2] -0.221 | [3] 0.015 | [4] -0.112 | [5] -0.088 | [6] 0.133 | [7] 0.115 | [8] -0.01 | [9] -0.191

MRPL32 (UniProt Q9BYC8)
inactive: erlotinib -0.106 | [1] -0.133 | [2] -0.178 | [3] 0.049 | [4] -0.149 | [5] 0.018 | [6] -0.077 | [7] -0.012 | [8] 0.008 | [9] 0.008

MPZL1 (UniProt O95297)
inactive: erlotinib 0.019 | [1] 0.005 | [2] -0.044 | [3] 0 | [4] -0.022 | [5] 0.022 | [6] 0.006 | [7] -0.037 | [8] -0.015 | [9] -0.001

MRPL1 (UniProt Q9BYD6)
inactive: erlotinib -0.057 | [1] -0.138 | [2] -0.193 | [3] 0.032 | [4] -0.083 | [5] -0.003 | [6] 0.012 | [7] 0.086 | [8] -0.012 | [9] -0.258

MND1 (UniProt Q9BWT6)
inactive: erlotinib -0.068 | [1] 0.034 | [2] -0.003 | [3] -0.002 | [4] -0.011 | [5] 0.015 | [6] -0.019 | [7] 0.009 | [8] -0.081 | [9] -0.017

MIPEP (UniProt Q99797)
inactive: erlotinib 0.005 | [1] 0 | [2] 0.092 | [3] 0.028 | [4] 0.055 | [5] 0.013 | [6] -0.021 | [7] -0.005 | [8] -0.025 | [9] 0.077

MRPL35 (UniProt Q9NZE8)
inactive: erlotinib -0.102 | [1] -0.104 | [2] -0.268 | [3] 0.158 | [4] -0.05 | [5] -0.041 | [6] 0.048 | [7] 0.097 | [8] 0.105 | [9] -0.157

MRPL23 (UniProt Q16540)
inactive: erlotinib -0.078 | [1] -0.075 | [2] -0.116 | [3] 0.056 | [4] -0.041 | [5] -0.028 | [6] 0.041 | [7] 0.147 | [8] 0.042 | [9] -0.191

MPV17L2 (UniProt Q567V2)
inactive: erlotinib 0.008 | [1] 0.018 | [2] 0.147 | [3] -0.005 | [4] 0.051 | [5] 0.046 | [6] 0.006 | [7] -0.053 | [8] -0.009 | [9] 0.068

MMAB (UniProt Q96EY8)
inactive: erlotinib 0 | [1] 0.006 | [2] 0.017 | [3] -0.03 | [4] 0.029 | [5] -0.008 | [6] -0.018 | [7] -0.05 | [8] 0.035 | [9] 0.023

MLLT1 (UniProt Q03111)
inactive: erlotinib 0.012 | [1] -0.053 | [2] -0.082 | [3] 0.027 | [4] 0.094 | [5] 0.002 | [6] 0.014 | [7] -0.061 | [8] 0.109 | [9] -0.074

Quoted at random: 2 entries already listed, in no set order.
MRPL23 (UniProt Q16540)
inactive: erlotinib -0.078 | [1] -0.075 | [2] -0.116 | [3] 0.056 | [4] -0.041 | [5] -0.028 | [6] 0.041 | [7] 0.147 | [8] 0.042 | [9] -0.191

MIPEP (UniProt Q99797)
inactive: erlotinib 0.005 | [1] 0 | [2] 0.092 | [3] 0.028 | [4] 0.055 | [5] 0.013 | [6] -0.021 | [7] -0.005 | [8] -0.025 | [9] 0.077

Next part

MRPL4 (UniProt Q9BYD3)
inactive: erlotinib -0.136 | [1] -0.112 | [2] -0.064 | [3] 0.138 | [4] -0.071 | [5] -0.028 | [6] 0.026 | [7] 0.045 | [8] 0.024 | [9] -0.069

MIEF1 (UniProt L0R8F8)
inactive: erlotinib 0.025 | [1] 0.102 | [2] 0.021 | [3] -0.022 | [4] -0.073 | [5] -0.072 | [6] 0.033 | [7] 0.02 | [8] -0.107 | [9] 0.019

MRPL55 isoform 2 (UniProt Q7Z7F7)
inactive: erlotinib -0.024 | [1] -0.002 | [2] -0.287 | [3] -0.024 | [4] 0 | [5] -0.047 | [6] 0.082 | [7] 0.331 | [8] 0.039 | [9] -0.121

MPP6 (UniProt Q9NZW5)
inactive: erlotinib 0.015 | [1] 0.029 | [2] 0.053 | [3] 0.01 | [4] 0.011 | [5] -0.005 | [6] -0.058 | [7] -0.07 | [8] -0.034 | [9] 0.025

MORF4L1 isoform 2 (UniProt Q9UBU8)
inactive: erlotinib 0.026 | [1] 0.007 | [2] -0.059 | [3] -0.021 | [4] 0.005 | [5] 0.008 | [6] -0.016 | [7] -0.01 | [8] -0.053 | [9] 0.021

MRPL3 (UniProt P09001)
inactive: erlotinib -0.169 | [1] -0.12 | [2] -0.168 | [3] 0.099 | [4] -0.056 | [5] -0.034 | [6] 0.017 | [7] 0.124 | [8] -0.001 | [9] -0.212

MRPL48 (UniProt Q96GC5)
inactive: erlotinib -0.202 | [1] -0.023 | [2] -0.142 | [3] 0.068 | [4] -0.097 | [5] 0 | [6] -0.038 | [7] 0.283 | [8] 0.004 | [9] -0.289

MMGT1 isoform 2 (UniProt Q8N4V1)
inactive: erlotinib 0.053 | [1] 0.054 | [2] 0.12 | [3] 0.05 | [4] 0.05 | [5] 0.023 | [6] -0.001 | [7] 0.006 | [8] 0.044 | [9] 0.002

MKKS (UniProt Q9HB66)
inactive: erlotinib 0.111 | [1] 0 | [2] 0.237 | [3] -0.113 | [4] -0.042 | [5] 0.185 | [7] -0.094 | [8] 0.025 | [9] -0.019

MINPP1 (UniProt Q9UNW1)
inactive: erlotinib -0.057 | [1] 0.003 | [2] -0.001 | [3] 0.039 | [4] 0.004 | [5] 0.055 | [6] -0.02 | [7] -0.039 | [8] 0.002 | [9] -0.012

MRPL34 (UniProt Q9BQ48)
inactive: erlotinib -0.029 | [1] -0.167 | [2] -0.116 | [3] 0.101 | [4] -0.048 | [5] -0.03 | [6] 0.006 | [7] 0.018 | [8] -0.004 | [9] -0.174

MORC2 (UniProt Q9Y6X9)
inactive: erlotinib 0.105 | [1] 0.033 | [2] -0.027 | [3] 0.051 | [4] 0.148 | [5] -0.097 | [7] 0.421

MRPL17 (UniProt Q9NRX2)
inactive: erlotinib -0.025 | [1] -0.044 | [2] -0.121 | [3] 0.117 | [4] -0.044 | [5] 0.019 | [6] -0.05 | [7] 0.075 | [8] 0.095 | [9] -0.115
